Where a chain is given by its changes, count along the chain named. In names and notes the source's numbering stands. Read-outs that look alike come from different tables or passages of the source. Results are given in words; binding and its absence hold for the method and conditions named. In cells and extracts the contact can be indirect. Some results given as binding are weak or reduced against the parent protein; the word gives no strength. Blank lines part the entries; values can stand above or below the molecule they belong to.
Legend:
Assay in all cases: pull-down; purified GST-ATG8 family protein on GSH beads incubated with HEK293T lysates overexpressing HA-tagged ORP8, ORP8 mutants or ORP5; NP-40 buffer, 4°C, 2 h; Western blot; in Fig. 5G/H the cells were glucose- and serum-starved for 6 h; only the target purified
[1] = biological target: GST-GABARAPL2 (UniProt P60520)
[2] = biological target: GST-GABARAP (UniProt O95166)
[3] = biological target: GST-LC3A (UniProt Q9H492)
[4] = biological target: GST-GABARAP (UniProt O95166); remark: listed apart in the source

Sequences of proteins named here, by UniProt entry; tags and fusion partners are left off.
UniProt P60520: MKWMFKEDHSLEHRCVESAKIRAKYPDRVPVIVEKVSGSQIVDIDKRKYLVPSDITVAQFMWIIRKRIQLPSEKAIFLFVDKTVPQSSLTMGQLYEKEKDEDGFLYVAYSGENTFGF
UniProt O95166: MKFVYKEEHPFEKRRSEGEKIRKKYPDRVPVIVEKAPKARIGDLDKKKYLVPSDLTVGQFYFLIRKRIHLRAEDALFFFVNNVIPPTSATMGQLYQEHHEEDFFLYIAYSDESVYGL

- binding [1]: binds
- binding [2]: binds
- binding [3]: binds
Molecule: HA-ORP8 (from UniProt Q9BZF1 1-889)

- binding [4]: binds
B2: ORP8-T54A/S65A (protein, UniProt Q9BZF1 1-889)
chain: MEGGLADGEPDRTSLLGDSKDVLGPSTVVANSDESQLLTPGKMSQRQGKEAYPAPTKDLHQPSLAPASPHSQGFERGKEDISQNKDESSLSMSKSKSESKLYNGSEKDSSTSSKLTKKESLKVQKKNYREEKKRATKELLSTITDPSVIVMADWLKIRGTLKSWTKLWCVLKPGVLLIYKTQKNGQWVGTVLLNACEIIERPSKKDGFCFKLFHPLEQSIWAVKGPKGEAVGSITQPLPSSYLIIRATSESDGRCWMDALELALKCSSLLKRTMIREGKEHDLSVSSDSTHVTFYGLLRANNLHSGDNFQLNDSEIERQHFKDQDMYSDKSDKENDQEHDESDNEVMGKSEESDTDTSERQDDSYIEPEPVEPLKETTYTEQSHEELGEAGEASQTETVSEENKSLIWTLLKQVRPGMDLSKVVLPTFILEPRSFLDKLSDYYYHADFLSEAALEENPYFRLKKVVKWYLSGFYKKPKGLKKPYNPILGETFRCLWIHPRTNSKTFYIAEQVSHHPPISAFYVSNRKDGFCLSGSILAKSKFYGNSLSAILEGEARLTFLNRGEDYVMTMPYAHCKGILYGTMTLELGGTVNITCQKTGYSAILEFKLKPFLGSSDCVNQISGKLKLGKEVLATLEGHWDSEVFITDKKTDNSEVFWNPTPDIKQWRLIRHTVKFEEQGDFESEKLWQRVTRAINAKDQTEATQEKYVLEEAQRQAARDRKTKNEEWSCKLFELDPLTGEWHYKFADTRPWDPLNDMIQFEKDGVIQTKVKHRTPMVSVPKMKHKPTRQQKKVAKGYSSPEPDIQDSSGSEAQSVKPSTRRKKGIELGDIQSSIESIKQTQEEIKRNIMALRNHLVSSTPATDYFLQQKDYFIIFLLILLQVIINFMFK

Second part, the molecule before the results:

B1: ORP8-T54A (protein, UniProt Q9BZF1 1-889)
chain: B2 chain with A65S
- binding [4]: binds

B3: ORP8-S65A (protein, UniProt Q9BZF1 1-889)
chain: B2 chain with A54T
- binding [4]: binds
